Laboratory results from PubChem BioAssay AID344 (DTP/NCI, 2004).
The list does not hold the whole screen: it covers a few groups of compounds. Not every dose and run of a compound is shown. T/C gives the treated animals as a percentage of the vehicle group. For survival time, the PubChem record calls one and a half times the control and up active, and a quarter to a half above the control has no call in these data; cut-offs in other NCI protocols can differ. Some entries show no survivor count and are marked so; the dose need not have been tolerated. Schedules are NCI's codes, read here as Q, the interval in days (D) or hours (H), X, the number of doses. Some entries hold several experiments; their values stand side by side, smallest first. Some schedule codes hold Z or #, which are not explained here.

Tested on: mice, LPC-1 plasma cell tumor ip, median survival T/C
Assay: NCI In Vivo Anticancer Drug Screen. Data for tumor model Lieberman Plasma Cell No. 1 (LPC-1) (intraperitoneal) in unknown mice
Conditions: T/C endpoint: median survival time, higher T/C = longer survival
Experimental: The antitumor activity of compounds was measured in mice bearing transplantable tumors. Survival or tumor size were measured and the results are expressed as the measurement made in the treated group (T) divided by the measurement made in the vehicle treated control group (C). The tumor model used in this assay is Lieberman Plasma Cell No. 1 (LPC-1) (intraperitoneal) in unknown mice

SMILES: ClCCN(CCCl)c1ccccc1
- T/C (dose: 25.0 mg/kg/injection, schedule: Q## X015 (oral), vehicle: carboxymethylcellulose (CMC)): 97 [survivor count not shown] and 428 % of control [survivor count not shown]
- T/C (dose: 25.1 mg/kg/injection, schedule: Q07DX004 (sc), vehicle: carboxymethylcellulose (CMC)): 147 % of control [survivor count not shown]
- T/C (dose: 27.0 mg/kg/injection, schedule: Q01DX005 (oral), vehicle: steroid suspending solution): 196 % of control [survivor count not shown]
- T/C (dose: 39.0 mg/kg/injection, schedule: Q01DX028 (sc), vehicle: carboxymethylcellulose (CMC)): 113 [survivor count not shown] and 136 % of control [survivor count not shown]
- T/C (dose: 45.0 mg/kg/injection, schedule: Q01DX005 (oral), vehicle: steroid suspending solution): 173 % of control [survivor count not shown]
- T/C (dose: 50.0 mg/kg/injection, schedule: Q01DX001 (ip), vehicle: carboxymethylcellulose (CMC)): 529 % of control [survivor count not shown]
- T/C (dose: 50.0 mg/kg/injection, schedule: Q01DX001 (oral), vehicle: carboxymethylcellulose (CMC)): 428 [survivor count not shown] and 500 % of control [survivor count not shown]
- T/C (dose: 50.0 mg/kg/injection, schedule: Q01DX001 (sc), vehicle: carboxymethylcellulose (CMC)): 134 [survivor count not shown] and 145 % of control [survivor count not shown]
- T/C (dose: 50.0 mg/kg/injection, schedule: Q01DX005 (ip), vehicle: carboxymethylcellulose (CMC)): 94 % of control [survivor count not shown]
- T/C (dose: 50.0 mg/kg/injection, schedule: Q01DX005 (oral), vehicle: carboxymethylcellulose (CMC)): 94 [survivor count not shown], 95 [survivor count not shown], 100 [survivor count not shown], 450 % of control [survivor count not shown]
- T/C (dose: 50.0 mg/kg/injection, schedule: Q01DX024 (ip), vehicle: carboxymethylcellulose (CMC)): 100 % of control [survivor count not shown]
- T/C (dose: 50.0 mg/kg/injection, schedule: Q01DX024 (oral), vehicle: carboxymethylcellulose (CMC)): 95 % of control [survivor count not shown]
- T/C (dose: 50.0 mg/kg/injection, schedule: Q01DX028 (oral), vehicle: carboxymethylcellulose (CMC)): 97 [survivor count not shown], 122 [survivor count not shown], 172 % of control [survivor count not shown]
- T/C (dose: 50.0 mg/kg/injection, schedule: Q01DX028 (sc), vehicle: carboxymethylcellulose (CMC)): 121 % of control [survivor count not shown]
- T/C (dose: 50.0 mg/kg/injection, schedule: Q02DX014 (sc), vehicle: carboxymethylcellulose (CMC)): 189 % of control [survivor count not shown]
- T/C (dose: 50.0 mg/kg/injection, schedule: Q03HX064 (oral), vehicle: carboxymethylcellulose (CMC)): 107 % of control [survivor count not shown]
- T/C (dose: 50.0 mg/kg/injection, schedule: Q04DX008 (oral), vehicle: carboxymethylcellulose (CMC)): 210 % of control [survivor count not shown]
- T/C (dose: 50.0 mg/kg/injection, schedule: Q07DX004 (sc), vehicle: carboxymethylcellulose (CMC)): 136 % of control [survivor count not shown]
- T/C (dose: 50.0 mg/kg/injection, schedule: Q14DX002 (sc), vehicle: carboxymethylcellulose (CMC)): 109 % of control [survivor count not shown]
- T/C (dose: 50.0 mg/kg/injection, schedule: Q## X008 (oral), vehicle: carboxymethylcellulose (CMC)): 450 % of control [survivor count not shown]
- T/C (dose: 50.0 mg/kg/injection, schedule: Q## X010 (ip), vehicle: carboxymethylcellulose (CMC)): 97 % of control [survivor count not shown]
- T/C (dose: 50.0 mg/kg/injection, schedule: Q## X010 (oral), vehicle: carboxymethylcellulose (CMC)): 91 [survivor count not shown] and 119 % of control [survivor count not shown]
- T/C (dose: 50.0 mg/kg/injection, schedule: Q## X015 (oral), vehicle: carboxymethylcellulose (CMC)): 94 [survivor count not shown] and 109 % of control [survivor count not shown]
- T/C (dose: 50.1 mg/kg/injection, schedule: Q07DX004 (sc), vehicle: carboxymethylcellulose (CMC)): 152 % of control [survivor count not shown]
- T/C (dose: 65.0 mg/kg/injection, schedule: Q01DX028 (sc), vehicle: carboxymethylcellulose (CMC)): 106 % of control [survivor count not shown]
- T/C (dose: 75.0 mg/kg/injection, schedule: Q01DX001 (sc), vehicle: carboxymethylcellulose (CMC)): 127 % of control [survivor count not shown]
- T/C (dose: 75.0 mg/kg/injection, schedule: Q01DX005 (oral), vehicle: steroid suspending solution): 115 % of control [survivor count not shown]
- T/C (dose: 100.0 mg/kg/injection, schedule: Q01DX001 (ip), vehicle: carboxymethylcellulose (CMC)): 417 % of control [survivor count not shown]
- T/C (dose: 100.0 mg/kg/injection, schedule: Q01DX001 (oral), vehicle: carboxymethylcellulose (CMC)): 122 [survivor count not shown], 211 [survivor count not shown], 266 [survivor count not shown], 314 [survivor count not shown], 500 % of control [survivor count not shown]
- T/C (dose: 100.0 mg/kg/injection, schedule: Q01DX001 (sc), vehicle: carboxymethylcellulose (CMC)): 186 [survivor count not shown] and 409 % of control [survivor count not shown]
- T/C (dose: 100.0 mg/kg/injection, schedule: Q01DX005 (oral), vehicle: carboxymethylcellulose (CMC)): 88 [survivor count not shown] and 102 % of control [survivor count not shown]
- T/C (dose: 100.0 mg/kg/injection, schedule: Q01DX028 (oral), vehicle: carboxymethylcellulose (CMC)): 105 % of control [survivor count not shown]
- T/C (dose: 100.0 mg/kg/injection, schedule: Q02DX014 (sc), vehicle: carboxymethylcellulose (CMC)): 136 % of control [survivor count not shown]
- T/C (dose: 100.0 mg/kg/injection, schedule: Q03HX008 (oral), vehicle: carboxymethylcellulose (CMC)): 500 % of control [survivor count not shown]
- T/C (dose: 100.0 mg/kg/injection, schedule: Q04DX008 (oral), vehicle: carboxymethylcellulose (CMC)): 111 [survivor count not shown] and 450 % of control [survivor count not shown]
- T/C (dose: 100.0 mg/kg/injection, schedule: Q07DX004 (sc), vehicle: carboxymethylcellulose (CMC)): 204 % of control [survivor count not shown]
- T/C (dose: 100.0 mg/kg/injection, schedule: Q08DX004 (oral), vehicle: carboxymethylcellulose (CMC)): 117 % of control [survivor count not shown]
- T/C (dose: 100.0 mg/kg/injection, schedule: Q14DX002 (sc), vehicle: carboxymethylcellulose (CMC)): 100 % of control [survivor count not shown]
- T/C (dose: 100.0 mg/kg/injection, schedule: Q## X010 (oral), vehicle: carboxymethylcellulose (CMC)): 90 % of control [survivor count not shown]
- T/C (dose: 100.0 mg/kg/injection, schedule: Q## X015 (oral), vehicle: carboxymethylcellulose (CMC)): 92 % of control [survivor count not shown]
- T/C (dose: 100.1 mg/kg/injection, schedule: Q07DX004 (sc), vehicle: carboxymethylcellulose (CMC)): 110 % of control [survivor count not shown]
- T/C (dose: 108.0 mg/kg/injection, schedule: Q01DX028 (sc), vehicle: carboxymethylcellulose (CMC)): 93 % of control [survivor count not shown]
- T/C (dose: 150.0 mg/kg/injection, schedule: Q01DX001 (sc), vehicle: carboxymethylcellulose (CMC)): 127 % of control [survivor count not shown]
- T/C (dose: 180.0 mg/kg/injection, schedule: Q01DX028 (sc), vehicle: carboxymethylcellulose (CMC)): 88 % of control [survivor count not shown]
- T/C (dose: 200.0 mg/kg/injection, schedule: Q01DX001 (oral), vehicle: carboxymethylcellulose (CMC)): 91 [survivor count not shown], 105 [survivor count not shown], 152 % of control [survivor count not shown]
- T/C (dose: 200.0 mg/kg/injection, schedule: Q01DX001 (sc), vehicle: carboxymethylcellulose (CMC)): 97 [survivor count not shown] and 327 % of control [survivor count not shown]
- T/C (dose: 200.0 mg/kg/injection, schedule: Q01DX005 (oral), vehicle: carboxymethylcellulose (CMC)): 87 % of control [survivor count not shown]
- T/C (dose: 200.0 mg/kg/injection, schedule: Q03HX008 (oral), vehicle: carboxymethylcellulose (CMC)): 108 % of control [survivor count not shown]
- T/C (dose: 200.0 mg/kg/injection, schedule: Q04DX008 (oral), vehicle: carboxymethylcellulose (CMC)): 111 [survivor count not shown] and 210 % of control [survivor count not shown]
- T/C (dose: 200.0 mg/kg/injection, schedule: Q07DX004 (sc), vehicle: carboxymethylcellulose (CMC)): 188 % of control [survivor count not shown]
- T/C (dose: 200.0 mg/kg/injection, schedule: Q08DX004 (oral), vehicle: carboxymethylcellulose (CMC)): 94 % of control [survivor count not shown]
- T/C (dose: 200.0 mg/kg/injection, schedule: Q14DX002 (sc), vehicle: carboxymethylcellulose (CMC)): 136 % of control [survivor count not shown]
- T/C (dose: 400.0 mg/kg/injection, schedule: Q01DX001 (oral), vehicle: carboxymethylcellulose (CMC)): 437 % of control [survivor count not shown]
- T/C (dose: 400.0 mg/kg/injection, schedule: Q04DX008 (oral), vehicle: carboxymethylcellulose (CMC)): 305 % of control [survivor count not shown]
- T/C (dose: 400.0 mg/kg/injection, schedule: Q07DX004 (sc), vehicle: carboxymethylcellulose (CMC)): 93 % of control [survivor count not shown]
- T/C (dose: 400.0 mg/kg/injection, schedule: Q08DX004 (oral), vehicle: carboxymethylcellulose (CMC)): 88 % of control [survivor count not shown]
- T/C (dose: 400.0 mg/kg/injection, schedule: Q14DX002 (sc), vehicle: carboxymethylcellulose (CMC)): 177 % of control [survivor count not shown]
- T/C (dose: 800.0 mg/kg/injection, schedule: Q01DX001 (oral), vehicle: carboxymethylcellulose (CMC)): 190 % of control [survivor count not shown]
